From PubChem BioAssay AID248 (DTP/NCI, 2004) come the findings set out here.

The list is a part of this screen's results and no random one: it is rich in T/C values a quarter to a half above the control, in often repeated tests (any T/C) and in doses without a T/C. Further doses and runs are listed elsewhere. T/C: endpoint of the treated group in % of that of the vehicle group. Some doses have a count of surviving animals in place of a T/C: the source holds a T/C of zero for them, seemingly a mark for toxic or unscored doses. Some doses without a T/C left all or most animals alive at the check, yet need not have been tolerated: the source hardly ever lists a survival T/C far under the control, and the zero likely stands for such cases as well. Counts of survivors are from the toxicity check (mostly the fifth day) where no day follows; animals may have died later. Schedule codes are those of the source, taken here to give the interval after Q, in days (D) or hours (H), and the number of doses after X. Some entries were tested several times; the results are listed from low to high. Some schedules carry Z or #; the key to these is not given. For survival time, this PubChem deposit counts one and a half times the control or more as active, and values a quarter to a half above the control carry no call in these data; other NCI protocols may use other cut-offs.

In the assay the test system is L1210 leukemia ip in BDF1 mice, survival T/C. Put plainly: NCI In Vivo Anticancer Drug Screen. Data for tumor model L1210 Leukemia (intraperitoneal) in B6D2F1 (BDF1) mice. The settings on record: T/C endpoint: mean survival time, higher T/C = longer survival.
The mark [1] stands for this setting: dose: 100.0 mg/kg/injection, schedule: Q04DX003 (ip), vehicle: Klucel (hydroxypropylcellulose) (HPC).
[2] abbreviates: dose: 200.0 mg/kg/injection, schedule: Q04DX003 (ip), vehicle: Klucel (hydroxypropylcellulose) (HPC).
Where [3] appears, read: dose: 400.0 mg/kg/injection, schedule: Q04DX003 (ip), vehicle: Klucel (hydroxypropylcellulose) (HPC).
Setting [4] is: dose: 100.0 mg/kg/injection, schedule: Q01DX009 (ip), vehicle: Klucel (hydroxypropylcellulose) (HPC).
Where [5] appears, read: dose: 400.0 mg/kg/injection, schedule: Q04DX002 (ip), vehicle: saline.
Setting [6] is: dose: 200.0 mg/kg/injection, schedule: Q04DX003 (ip), vehicle: saline.

In the case of `CC1CC(OC(=O)CCN2CC2)CC(C)(C)C1` (configuration not stated), the survivor count reads like this: (dose: 10.0 mg/kg/injection, schedule: Q01DX009 (ip), vehicle: Klucel (hydroxypropylcellulose) (HPC)) 5 of 6; (dose: 80.0 mg/kg/injection, schedule: Q01DX009 (ip), vehicle: Klucel (hydroxypropylcellulose) (HPC)) 3 of 6; under setting [1], 5 of 6; under setting [2], 5 of 6; under setting [3], 1 of 6.

Turning to `O=C1CC(c2ccccc2)NN1c1ccccc1` (configuration not stated), the survivor count is 3 of 3 (dose: 100.0 mg/kg/injection, schedule: Q04DX002 (ip), vehicle: saline with Tween-80); 5 of 6 and 3 of 3 (dose: 200.0 mg/kg/injection, schedule: Q01DX009 (ip), vehicle: saline with Tween-80); 3 of 3 (dose: 200.0 mg/kg/injection, schedule: Q04DX002 (ip), vehicle: saline with Tween-80); 3 of 3 (dose: 400.0 mg/kg/injection, schedule: Q04DX002 (ip), vehicle: saline with Tween-80).

Consider `NNC(=O)c1c[nH]c2ccccc2c1=O`, for which the survivor count under setting [4] was 6 of 6; the survivor count (dose: 200.0 mg/kg/injection, schedule: Q01DX009 (ip), vehicle: Klucel (hydroxypropylcellulose) (HPC)) is recorded as 6 of 6; the survivor count (dose: 400.0 mg/kg/injection, schedule: Q01DX009 (ip), vehicle: Klucel (hydroxypropylcellulose) (HPC)) is on record as 6 of 6.

For `Clc1cc[c]([Sn]([Cl])([c]2ccc(Cl)cc2)[c]2ccc(Cl)cc2)cc1`, the survivor count (dose: 6.25 mg/kg/injection, schedule: Q01DX009 (ip), vehicle: saline) was 4 of 6 and 5 of 6; the survivor count (dose: 12.5 mg/kg/injection, schedule: Q01DX009 (ip), vehicle: saline) was 1 of 6; the survivor count (dose: 25.0 mg/kg/injection, schedule: Q01DX009 (ip), vehicle: saline) is 0 of 6; the survivor count (dose: 25.0 mg/kg/injection, schedule: Q04DX002 (ip), vehicle: saline) is reported as 3 of 3; the survivor count (dose: 50.0 mg/kg/injection, schedule: Q04DX002 (ip), vehicle: saline) is 2 of 3; the survivor count (dose: 100.0 mg/kg/injection, schedule: Q04DX002 (ip), vehicle: saline) was 1 of 3 and 2 of 3. In addition, the survivor count was 0 of 3 (dose: 200.0 mg/kg/injection, schedule: Q04DX002 (ip), vehicle: saline) and 0 of 3 under setting [5].

Take `[CH3][Sn]([CH3])([CH3])[CH2][Sn]([CH3])([CH3])[CH3]`: the survivor count is, setting by setting: (dose: 200.0 mg/kg/injection, schedule: Q01DX009 (ip), vehicle: saline) 0 of 3; (dose: 400.0 mg/kg/injection, schedule: Q01DX009 (ip), vehicle: saline) 0 of 3.

For the compound `O=C(O)C(Br)C(Br)C(=O)O.[Ag]` (configuration not stated), the survivor count is, setting by setting: (dose: 37.5 mg/kg/injection, schedule: Q01DX001 (ip), vehicle: other) 1 of 6; (dose: 75.0 mg/kg/injection, schedule: Q01DX001 (ip), vehicle: other) 0 of 6; (dose: 150.0 mg/kg/injection, schedule: Q01DX001 (ip), vehicle: other) 0 of 6; (dose: 300.0 mg/kg/injection, schedule: Q01DX001 (ip), vehicle: other) 6 of 6.

As to `O=c1[nH]nnc2nc(Cc3ccc([N+](=O)[O-])cc3)[nH]c12`, the survivor count is given as 3 of 6 (dose: 200.0 mg/kg/injection, schedule: Q01DX001 (ip), vehicle: saline with Tween-80) and 2 of 6 (dose: 400.0 mg/kg/injection, schedule: Q01DX001 (ip), vehicle: saline with Tween-80).

For the compound `O=C(NC(=O)C(Cl)Cl)Nc1cccc2c1Cc1ccccc1-2`, under setting [2], the survivor count was 6 of 6.

As to `CN(C)CCCCCO`, the survivor count runs as follows: (dose: 100.0 mg/kg/injection, schedule: Q01DX009 (ip), vehicle: saline with Tween-80) 6 of 6; (dose: 400.0 mg/kg/injection, schedule: Q04DX003 (ip), vehicle: saline with Tween-80) 4 of 6.

`CN(N=O)C(=O)NC1C=CCCC1` (configuration not stated): the survivor count (dose: 400.0 mg/kg/injection, schedule: Q01DX001 (ip), vehicle: other) is on record as 5 of 10.

Consider `NCCCCC(N)C(=O)NCCCCCCN(CCCCCCNC(=O)C(N)CCCCN)C(=O)C(N)CCCCN` (configuration not stated), for which the survivor count (dose: 200.0 mg/kg/injection, schedule: Q01DX001 (ip), vehicle: saline) is recorded as 1 of 6 and the survivor count (dose: 400.0 mg/kg/injection, schedule: Q01DX001 (ip), vehicle: saline) is 0 of 6.

Turning to `COc1ccc(N=NN(C)C)cc1`, the survivor count by setting is: (dose: 75.0 mg/kg/injection, schedule: Q01DX001 (ip), vehicle: saline with Tween-80) 5 of 10; (dose: 150.0 mg/kg/injection, schedule: Q01DX001 (ip), vehicle: saline with Tween-80) 0 of 10.

For `CN(C)c1ccc(N=Nc2cc(Cl)cc(Cl)c2)cc1`, under “dose: 400.0 mg/kg/injection, schedule: Q01DX001 (ip), vehicle: carboxymethylcellulose (CMC)”, the survivor count is on record as 6 of 6.

For the compound `NC(N)=N/N=C/C(=N\N=C(N)N)C(F)(F)F`, where the note is “dose: 480.0 mg/kg/injection, schedule: Q01DX Z (ip), vehicle: saline”, the survivor count is given as 0 of 6.

Consider `O=S(=O)([O-])NC1CCCCC1.O=S(=O)([O-])NC1CCCCC1.[Hg+2].[Hg+2].[Hg+2].[O-2].[O-2]`, for which the survivor count is, setting by setting: under setting [1], 1 of 6; under setting [2], 0 of 6; under setting [3], 0 of 6.

Regarding `O=S(=O)(O)c1ccc2c(O)cc(S(=O)(=O)O)cc2c1`, the survivor count under setting [6] is given as 6 of 6.

Take `O=P(Oc1ccc(OP(=O)(N2CC2)N2CC2)cc1)(N1CC1)N1CC1`: the T/C is, setting by setting: (dose: 32.0 mg/kg/injection, schedule: Q01DX009 (ip), vehicle: saline) 141 % of control; (dose: 75.0 mg/kg/injection, schedule: Q01DX001 (ip), vehicle: saline) 133 % of control; (dose: 150.0 mg/kg/injection, schedule: Q01DX001 (ip), vehicle: saline) 133 % of control.

In the case of `CC(=O)C1(c2ccccc2)OC1c1ccccc1` (configuration not stated), under setting [3], the survivor count is reported as 1 of 6.

As to `OCC1(CO)CC=CCC1`, the survivor count is, setting by setting: under setting [6], 6 of 6; (dose: 400.0 mg/kg/injection, schedule: Q04DX003 (ip), vehicle: saline) 6 of 6.

As to `OC(COc1cccc2ccccc12)CN1CCCCC1` (configuration not stated), the survivor count is, setting by setting: (dose: 100.0 mg/kg/injection, schedule: Q04DX002 (ip), vehicle: Klucel (hydroxypropylcellulose) (HPC)) 2 of 3; (dose: 200.0 mg/kg/injection, schedule: Q04DX002 (ip), vehicle: Klucel (hydroxypropylcellulose) (HPC)) 0 of 3; (dose: 400.0 mg/kg/injection, schedule: Q04DX002 (ip), vehicle: Klucel (hydroxypropylcellulose) (HPC)) 0 of 3.

Consider `O=C(OCc1ccccc1)C1CCCN1` (configuration not stated), for which the survivor count under setting [5] is on record as 0 of 3.

`O=C(O)/C(=C\c1ccncc1)c1cccc2ccccc12`: the survivor count under setting [4] is recorded as 6 of 6.

With `CCCCCCCCCCCC(c1ccccc1)[N+](C)(C)Cc1ccccc1` (configuration not stated), the survivor count is 2 of 6 (dose: 4.0 mg/kg/injection, schedule: Q01DX015 (ip), vehicle: saline); 0 of 4 (dose: 5.0 mg/kg/injection, schedule: Q01DX001 (ip), vehicle: carboxymethylcellulose (CMC)); 0 of 6 (dose: 6.0 mg/kg/injection, schedule: Q01DX015 (ip), vehicle: saline); 1 of 4 (dose: 10.0 mg/kg/injection, schedule: Q01DX001 (ip), vehicle: carboxymethylcellulose (CMC)); 0 of 4 (dose: 20.0 mg/kg/injection, schedule: Q01DX001 (ip), vehicle: carboxymethylcellulose (CMC)).

Consider `CCOC(=O)c1ccc(NC(=O)N(C)N=O)cc1`, for which, where the note is “dose: 150.0 mg/kg/injection, schedule: Q01DX001 (ip), vehicle: carboxymethylcellulose (CMC)”, the T/C is 130 % of control. Also, the survivor count is reported as 6 of 10 (dose: 300.0 mg/kg/injection, schedule: Q01DX001 (ip), vehicle: carboxymethylcellulose (CMC)); 0 of 10 (dose: 600.0 mg/kg/injection, schedule: Q01DX001 (ip), vehicle: carboxymethylcellulose (CMC)); 0 of 10 (dose: 1200.0 mg/kg/injection, schedule: Q01DX001 (ip), vehicle: carboxymethylcellulose (CMC)).
